The values that follow come from publication doi:10.1101/2020.02.03.932822.

Amino acid sequences for entries named in this document (tags omitted). A change or cut given only in a name is not applied to a line headed by its entry.
UniProt Q9UPV7: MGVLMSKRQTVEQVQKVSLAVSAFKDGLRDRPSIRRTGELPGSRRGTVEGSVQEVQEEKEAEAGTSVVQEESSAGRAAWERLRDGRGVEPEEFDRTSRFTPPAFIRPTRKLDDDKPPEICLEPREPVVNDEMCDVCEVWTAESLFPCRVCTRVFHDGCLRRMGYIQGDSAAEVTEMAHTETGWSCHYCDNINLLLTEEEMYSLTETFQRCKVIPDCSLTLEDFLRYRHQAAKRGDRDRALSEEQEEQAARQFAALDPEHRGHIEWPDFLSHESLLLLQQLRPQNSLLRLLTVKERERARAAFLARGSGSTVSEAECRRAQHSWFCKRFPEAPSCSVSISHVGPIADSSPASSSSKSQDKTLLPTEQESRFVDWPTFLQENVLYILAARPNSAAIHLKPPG
UniProt P63096: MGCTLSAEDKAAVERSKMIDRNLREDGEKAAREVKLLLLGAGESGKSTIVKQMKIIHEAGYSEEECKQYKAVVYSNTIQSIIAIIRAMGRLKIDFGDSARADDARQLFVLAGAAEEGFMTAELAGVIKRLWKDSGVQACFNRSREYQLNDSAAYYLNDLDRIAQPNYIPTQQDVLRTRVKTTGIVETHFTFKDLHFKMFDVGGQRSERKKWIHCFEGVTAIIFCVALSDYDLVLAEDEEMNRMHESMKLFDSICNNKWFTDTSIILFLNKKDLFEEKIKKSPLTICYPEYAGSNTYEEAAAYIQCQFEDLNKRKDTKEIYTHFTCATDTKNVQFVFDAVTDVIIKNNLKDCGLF

Results are given in words; binding and its absence hold for the method and conditions named. In cells and extracts the contact can be indirect. Some binding calls cover weakened binding; strength is not graded here. For part of these data: Tags and fused reporters may be left off the sequences shown.

Test [1] concerns the target GST-tagged GINIP protein (UniProt Q9UPV7). The test can be described thus: pull-down.
Test [2] has as its target T1, LPHN2-GFP (UniProt O95490).
T1 sequence: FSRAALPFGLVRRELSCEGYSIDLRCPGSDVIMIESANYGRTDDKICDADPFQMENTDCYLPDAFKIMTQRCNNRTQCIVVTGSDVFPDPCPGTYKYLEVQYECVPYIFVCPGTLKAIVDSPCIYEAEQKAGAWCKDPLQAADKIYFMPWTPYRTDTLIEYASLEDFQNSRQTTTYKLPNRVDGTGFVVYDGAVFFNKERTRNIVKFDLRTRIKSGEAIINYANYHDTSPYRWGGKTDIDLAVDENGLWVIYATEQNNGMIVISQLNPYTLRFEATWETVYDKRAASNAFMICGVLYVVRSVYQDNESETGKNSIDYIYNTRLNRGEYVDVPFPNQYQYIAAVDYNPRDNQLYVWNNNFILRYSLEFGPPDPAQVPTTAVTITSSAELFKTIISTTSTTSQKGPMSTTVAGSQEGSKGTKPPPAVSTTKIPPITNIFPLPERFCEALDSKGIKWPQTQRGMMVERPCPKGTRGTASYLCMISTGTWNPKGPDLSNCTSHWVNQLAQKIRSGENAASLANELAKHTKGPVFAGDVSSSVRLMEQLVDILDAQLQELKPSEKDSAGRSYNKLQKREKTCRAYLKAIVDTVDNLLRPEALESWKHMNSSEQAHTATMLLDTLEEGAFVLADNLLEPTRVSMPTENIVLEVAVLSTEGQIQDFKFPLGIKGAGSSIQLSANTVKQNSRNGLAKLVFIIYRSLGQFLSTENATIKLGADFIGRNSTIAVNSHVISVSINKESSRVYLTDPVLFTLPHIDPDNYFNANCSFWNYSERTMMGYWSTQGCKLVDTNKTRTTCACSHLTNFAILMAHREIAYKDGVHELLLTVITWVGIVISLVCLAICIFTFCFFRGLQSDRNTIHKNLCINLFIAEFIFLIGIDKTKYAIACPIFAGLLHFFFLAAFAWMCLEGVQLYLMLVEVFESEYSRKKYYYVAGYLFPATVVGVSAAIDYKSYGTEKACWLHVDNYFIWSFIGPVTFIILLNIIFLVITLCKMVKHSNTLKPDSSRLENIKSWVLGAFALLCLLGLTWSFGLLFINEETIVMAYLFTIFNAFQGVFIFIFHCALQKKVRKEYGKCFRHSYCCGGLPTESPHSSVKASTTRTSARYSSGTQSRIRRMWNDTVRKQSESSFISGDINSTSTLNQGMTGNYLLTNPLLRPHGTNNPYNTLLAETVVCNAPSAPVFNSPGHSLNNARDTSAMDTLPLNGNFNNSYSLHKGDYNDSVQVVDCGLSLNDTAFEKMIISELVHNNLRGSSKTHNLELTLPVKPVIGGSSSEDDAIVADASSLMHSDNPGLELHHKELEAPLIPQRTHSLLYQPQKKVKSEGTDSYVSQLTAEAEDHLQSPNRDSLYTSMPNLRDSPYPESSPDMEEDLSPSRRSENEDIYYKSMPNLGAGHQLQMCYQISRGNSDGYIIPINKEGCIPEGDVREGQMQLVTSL
The test can be described thus: co-IP.

In test [3] the target is Gi1Q306K with internal GluGlu (EE) tag (UniProt P63096). Kind of test: co-IP.

Regarding “Gi1Q306K with internal GluGlu (EE) tag (from UniProt P63096 1-354)”, in test [1], the binding result is listed as “binds”.

B1: endoglin (receptor, UniProt P17813 26-658)
chain: ETVHCDLQPVGPERGEVTYTTSQVSKGCVAQAPNAILEVHVLFLEFPTGPSQLELTLQASKQNGTWPREVLLVLSVNSSVFLHLQALGIPLHLAYNSSLVTFQEPPGVNTTELPSFPKTQILEWAAERGPITSAAELNDPQSILLRLGQAQGSLSFCMLEASQDMGRTLEWRPRTPALVRGCHLEGVAGHKEAHILRVLPGHSAGPRTVTVKVELSCAPGDLDAVLILQGPPYVSWLIDANHNMQIWTTGEYSFKIFPEKNIRGFKLPDTPQGLLGEARMLNASIVASFVELPLASIVSLHASSCGGRLQTSPAPIQTTPPKDTCSPELLMSLIQTKCADDAMTLVLKKELVAHLKCTITGLTFWDPSCEAEDRGDKFVLRSAYSSCGMQVSASMISNEAVVNILSSSSPQRKKVHCLNMDSLSFQLGLYLSPHFLQASNTIEPGQQSFVQVRVSPSVSEFLLQLDSCHLDLGPEGGTVELIQGRAAKGNCVSLLSPSPEGDPRFSFLLHFYTVPIPKTGTLSCTVALRPKTGSQDQEVHRTVFMRLNIISPDLSGCTSKGLVLPAVLGITFGAFLIGALLTAALWYIYSHTRSPSKREPVVAVAAPASSESSSTNHSIGSTQSTPCSTSSMA
Turning to B1, in test [2], the binding entry is “binds”.

B2: LPHN2-GFP (receptor, UniProt O95490 26-1459)
chain: T1 sequence
B2: the binding result in test [3] is recorded as “binds”.
